Like-named read-outs stand apart in the source and are kept apart here. No constants are given. Whether binding was seen depends on the method and setting. Binding seen in cells or lysates may run through a third protein. These calls come from enrichment with a bait or labelling near it, and not all partners need be listed. Each block holds one molecule with its values, some of them ahead of it.
Legend:
Assay in all cases: proximity labelling
[1] = target: lamin A/C (human (endogenous in HeLa, primary human tissue and fibroblasts)) (UniProt P02545)
[2] = target: lamin A/C (human (endogenous in HeLa, primary human tissue and fibroblasts)) (UniProt P02545); remark: listed apart in the source
[3] = target: GFP-LMNA (UniProt P02545)
[4] = target: T1, α-sarcoglycan (not stated (primary skeletal muscle; human and mouse tissue were used)) (UniProt Q16586)
T1 sequence: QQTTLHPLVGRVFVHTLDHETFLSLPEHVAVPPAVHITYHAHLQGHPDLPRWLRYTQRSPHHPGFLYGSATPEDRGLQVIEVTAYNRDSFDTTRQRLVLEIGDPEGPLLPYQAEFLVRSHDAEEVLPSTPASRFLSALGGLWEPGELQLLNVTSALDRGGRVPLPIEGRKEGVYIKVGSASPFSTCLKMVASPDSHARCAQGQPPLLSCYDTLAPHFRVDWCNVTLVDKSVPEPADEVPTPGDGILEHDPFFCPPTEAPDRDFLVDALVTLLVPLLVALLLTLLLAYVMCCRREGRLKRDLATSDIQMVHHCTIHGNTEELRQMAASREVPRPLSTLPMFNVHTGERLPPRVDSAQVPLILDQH

Amino acid sequences for entries named in this document (tags omitted). Residues count along the entry.
UniProt P02545, residues 1-646: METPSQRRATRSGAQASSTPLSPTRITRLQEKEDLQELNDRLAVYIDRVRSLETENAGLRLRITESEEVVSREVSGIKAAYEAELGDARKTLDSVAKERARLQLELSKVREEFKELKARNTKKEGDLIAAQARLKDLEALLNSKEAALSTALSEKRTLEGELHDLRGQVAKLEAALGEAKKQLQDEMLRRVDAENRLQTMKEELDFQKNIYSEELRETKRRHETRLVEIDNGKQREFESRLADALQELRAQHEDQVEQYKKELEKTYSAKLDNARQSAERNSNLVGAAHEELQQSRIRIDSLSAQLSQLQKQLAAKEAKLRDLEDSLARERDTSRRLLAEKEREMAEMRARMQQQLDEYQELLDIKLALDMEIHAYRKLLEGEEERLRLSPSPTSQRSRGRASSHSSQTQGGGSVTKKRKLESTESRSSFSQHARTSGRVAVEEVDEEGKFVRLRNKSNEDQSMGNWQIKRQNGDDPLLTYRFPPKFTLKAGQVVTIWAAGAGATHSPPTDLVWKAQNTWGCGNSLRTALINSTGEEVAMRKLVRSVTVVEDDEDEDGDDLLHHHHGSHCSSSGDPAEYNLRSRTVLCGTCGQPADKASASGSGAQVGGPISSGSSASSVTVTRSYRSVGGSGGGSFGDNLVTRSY
UniProt Q03135: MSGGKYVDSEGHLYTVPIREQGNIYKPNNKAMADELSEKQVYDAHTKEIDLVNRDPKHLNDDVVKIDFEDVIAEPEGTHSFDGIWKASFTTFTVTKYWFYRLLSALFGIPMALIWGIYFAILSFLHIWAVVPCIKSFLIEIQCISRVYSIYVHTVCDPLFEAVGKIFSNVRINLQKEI
UniProt P12956: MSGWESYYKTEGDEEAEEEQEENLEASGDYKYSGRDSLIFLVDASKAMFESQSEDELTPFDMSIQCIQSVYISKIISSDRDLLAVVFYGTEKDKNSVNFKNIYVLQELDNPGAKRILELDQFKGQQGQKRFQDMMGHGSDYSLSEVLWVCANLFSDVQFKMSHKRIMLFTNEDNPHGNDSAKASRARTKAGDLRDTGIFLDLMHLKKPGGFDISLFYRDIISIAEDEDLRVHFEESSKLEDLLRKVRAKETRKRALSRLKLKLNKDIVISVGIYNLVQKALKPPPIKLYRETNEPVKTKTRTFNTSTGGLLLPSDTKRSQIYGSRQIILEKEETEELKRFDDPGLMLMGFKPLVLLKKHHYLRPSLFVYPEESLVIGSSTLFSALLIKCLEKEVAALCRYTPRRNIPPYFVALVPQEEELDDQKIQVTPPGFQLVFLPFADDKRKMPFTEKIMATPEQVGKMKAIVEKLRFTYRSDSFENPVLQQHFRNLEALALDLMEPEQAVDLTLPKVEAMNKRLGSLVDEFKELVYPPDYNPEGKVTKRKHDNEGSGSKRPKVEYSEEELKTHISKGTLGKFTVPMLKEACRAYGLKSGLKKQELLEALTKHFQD
UniProt P13010: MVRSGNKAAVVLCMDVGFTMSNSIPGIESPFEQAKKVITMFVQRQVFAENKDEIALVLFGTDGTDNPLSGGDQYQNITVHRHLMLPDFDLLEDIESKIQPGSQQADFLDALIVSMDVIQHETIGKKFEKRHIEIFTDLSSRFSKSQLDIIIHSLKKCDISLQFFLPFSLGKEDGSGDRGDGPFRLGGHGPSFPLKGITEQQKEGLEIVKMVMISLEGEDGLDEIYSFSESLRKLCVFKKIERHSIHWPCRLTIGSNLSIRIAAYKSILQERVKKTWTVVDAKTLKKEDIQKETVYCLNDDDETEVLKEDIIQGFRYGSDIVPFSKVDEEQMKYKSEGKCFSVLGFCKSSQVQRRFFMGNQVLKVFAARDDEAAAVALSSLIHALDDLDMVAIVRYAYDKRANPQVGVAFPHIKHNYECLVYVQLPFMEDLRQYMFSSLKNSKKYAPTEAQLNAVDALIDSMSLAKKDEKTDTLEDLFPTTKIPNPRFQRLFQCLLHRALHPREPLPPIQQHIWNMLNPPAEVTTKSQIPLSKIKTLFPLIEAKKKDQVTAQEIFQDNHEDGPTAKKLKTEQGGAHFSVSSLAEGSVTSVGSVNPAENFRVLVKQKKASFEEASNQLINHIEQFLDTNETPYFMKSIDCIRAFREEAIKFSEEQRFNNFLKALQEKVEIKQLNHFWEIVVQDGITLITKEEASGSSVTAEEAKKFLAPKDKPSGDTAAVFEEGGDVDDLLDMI
UniProt P11142: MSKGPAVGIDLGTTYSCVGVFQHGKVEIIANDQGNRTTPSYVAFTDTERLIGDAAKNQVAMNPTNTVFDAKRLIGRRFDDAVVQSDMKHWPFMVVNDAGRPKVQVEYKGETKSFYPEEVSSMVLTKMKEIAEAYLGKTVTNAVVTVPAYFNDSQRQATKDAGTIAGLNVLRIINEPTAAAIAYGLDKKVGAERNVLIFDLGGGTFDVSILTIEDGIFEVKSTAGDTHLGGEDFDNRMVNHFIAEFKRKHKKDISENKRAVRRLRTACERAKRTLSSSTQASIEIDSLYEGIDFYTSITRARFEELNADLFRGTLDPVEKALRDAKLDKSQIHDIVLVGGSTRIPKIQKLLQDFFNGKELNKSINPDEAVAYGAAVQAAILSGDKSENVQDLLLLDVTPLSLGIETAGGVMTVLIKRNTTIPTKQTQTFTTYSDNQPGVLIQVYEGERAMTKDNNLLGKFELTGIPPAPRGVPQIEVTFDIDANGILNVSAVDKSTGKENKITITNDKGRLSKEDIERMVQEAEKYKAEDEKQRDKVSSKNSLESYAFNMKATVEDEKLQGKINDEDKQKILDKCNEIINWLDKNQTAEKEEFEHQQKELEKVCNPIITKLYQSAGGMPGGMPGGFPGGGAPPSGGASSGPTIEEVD

binding [1]: binds
Molecule: nesprin-2 (from UniProt Q8WXH0 1-6885)

binding [1]: binds
binding [2]: binds
Molecule: caveolin-1 (from UniProt Q03135 1-178)

binding [1]: binds
binding [3]: binds
Molecule: Ku70 (from UniProt P12956 1-609)

binding [1]: binds
binding [2]: binds
Molecule: nesprin-1 (from UniProt Q8NF91 1-8797)

binding [4]: binds
Molecule: lamin A/C (from UniProt P02545 1-646)

binding [1]: binds
binding [3]: binds
Molecule: Ku80 (from UniProt P13010 1-732)

binding [1]: binds
Molecule: HSPA8 (from UniProt P11142 1-646)

binding [2]: binds
B1: Muscular LMNA-interacting protein (protein, UniProt Q5VWP3 1-993)
chain: MLSEQGLLSDCGNNYFQMTSCILSGSIQTTPQVSAGGSEAKPLIFTFVPTVRRLPTHTQLADTSKFLVKIPEESSDKSPETVNRSKSNDYLTLNAGSQQERDQAKLTCPSEVSGTILQEREFEANKLQGMQQSDLFKAEYVLIVDSEGEDEAASRKVEQGPPGGIGTAAVRPKSLAISSSLVSDVVRPKTQGTDLKTSSHPEMLHGMAPQQKHGQLTSSPTTSEQLACKPPAFSFVSPTNPNTPPDPVNLEGASVLEEFHTRRLDVGGAVVEESATYFQTTAHSTPFSASKGTSSTLLFPHSTQLSGSNLPSSTAADPKPGLTSEVLKKTTLTSHVLSHGESPRTSSSPPSSSASLKSNSASYIPVRIVTHSLSPSPKPFTSSFHGSSSTICSQMSSSGNLSKSGVKSPVPSRLALLTAILKSNPSHQRPFSPASCPTFSLNSPASSTLTLDQKEKQTPPTPKKSLSSCSLRAGSPDQGELQVSELTQQSFHLPVFTKSTPLSQAPSLSPTKQASSSLASMNVERTPSPTLKSNTMLSLLQTSTSSSVGLPPVPPSSSLSSLKSKQDGDLRGPENPRNIHTYPSTLASSALSSLSPPINQRATFSSSEKCFHPSPALSSLINRSKRASSQLSGQELNPSALPSLPVSSADFASLPNLRSSSLPHANLPTLVPQLSPSALHPHCGSGTLPSRLGKSESTTPNHRSPVSTPSLPISLTRTEELISPCALSMSTGPENKKSKQYKTKSSYKAFAAIPTNTLLLEQKALDEPAKTESVSKDNTLEPPVELYFPAQLRQQTEELCATIDKVLQDSLSMHSSDSPSRSPKTLLGSDTVKTPTTLPRAAGRETKYANLSSPSSTVSESQLTKPGVIRPVPVKSRILLKKEEEVYEPNPFSKYLEDNSDLFSEQDVTVPPKPVSLHPLYQTKLYPPAKSLLHPQTLSHADCLAPGPFSHLSFSLSDEQENSHTLLSHNACNKLSHPMVAIPEHEALDSKEQ

binding [2]: binds
B2: lamin B2 (protein, UniProt Q03252 1-620)
chain: MSPPSPGRRREQRRPRAAATMATPLPGRAGGPATPLSPTRLSRLQEKEELRELNDRLAHYIDRVRALELENDRLLLKISEKEEVTTREVSGIKALYESELADARRVLDETARERARLQIEIGKLRAELDEVNKSAKKREGELTVAQGRVKDLESLFHRSEVELAAALSDKRGLESDVAELRAQLAKAEDGHAVAKKQLEKETLMRVDLENRCQSLQEELDFRKSVFEEEVRETRRRHERRLVEVDSSRQQEYDFKMAQALEELRSQHDEQVRLYKLELEQTYQAKLDSAKLSSDQNDKAASAAREELKEARMRLESLSYQLSGLQKQASAAEDRIRELEEAMAGERDKFRKMLDAKEQEMTEMRDVMQQQLAEYQELLDVKLALDMEINAYRKLLEGEEERLKLSPSPSSRVTVSRATSSSSGSLSATGRLGRSKRKRLEVEEPLGSGPSVLGTGTGGSGGFHLAQQASASGSVSIEEIDLEGKFVQLKNNSDKDQSLGNWRIKRQVLEGEEIAYKFTPKYILRAGQMVTVWAAGAGVAHSPPSTLVWKGQSSWGTGESFRTVLVNADGEEVAMRTVKKSSVMRENENGEEEEEEAEFGEEDLFHQQGDPRTTSRGCYVM

From paper doi:10.1101/069187
